# Screening data, single-dose tests

Protein sequences, listed by entry. Tags and fused reporters are not part of them. Residues count along the entry.
UniProt A4I591, 1-473: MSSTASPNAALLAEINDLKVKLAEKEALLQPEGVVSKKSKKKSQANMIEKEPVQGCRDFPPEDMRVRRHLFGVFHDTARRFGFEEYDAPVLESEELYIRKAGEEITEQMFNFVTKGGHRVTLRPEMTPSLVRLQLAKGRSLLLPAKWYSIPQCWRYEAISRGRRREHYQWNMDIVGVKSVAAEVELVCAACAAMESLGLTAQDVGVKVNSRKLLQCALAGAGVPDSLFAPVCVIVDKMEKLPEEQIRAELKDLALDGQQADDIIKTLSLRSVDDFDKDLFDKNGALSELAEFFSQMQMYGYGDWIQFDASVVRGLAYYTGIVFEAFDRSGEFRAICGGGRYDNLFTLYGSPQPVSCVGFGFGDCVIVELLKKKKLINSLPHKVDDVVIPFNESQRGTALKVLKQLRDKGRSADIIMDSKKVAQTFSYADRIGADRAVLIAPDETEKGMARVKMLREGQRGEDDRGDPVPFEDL

Values are the deposited “Percent Effect”, in %.
How 0% and 100% were set is not recorded. Most values in the screen are low, and negative values occur.
Compounds were drawn at random from those tested, without regard to their results.
A dash means the value is not listed here; it may have been measured.

Toxoplasma: 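Assay of Toxoplasma gondii numbers, read through their beta-galactosidase reporter with a colour substrate. Concentration: 10 µM. Higher reads as fewer parasites (inferred from which compounds were picked for retests). Size under these conditions: about 67,000 compounds, about 260 of them at 50% or above in at least one test.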
LiHisRS: 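Histidine-tRNA ligase, Leishmania infantum (UniProt A4I591). Enzyme assay of histidyl-tRNA synthetase; the read-out is not stated. Tested at 30 µM. Higher reads as stronger inhibition (inferred: compounds with an IC50 in retests scored well above the rest). The assay is labelled LdHisRS but filed under L. infantum. About 69,000 compounds were tested under these conditions; 0.6% (about 410) showed 50% or more at least once.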

O=C1CN(Cc2ccc(-c3ccccc3C(=O)O)cc2)CCN1 read Toxoplasma: 2.793%; LiHisRS: 5.714%.
COC(=O)c1ccc2c(-c3ccnc(N[C@@H](C)CO)n3)c[nH]c2c1 read Toxoplasma: 29.45%; LiHisRS: 5.714%.
OC(COCc1ccccc1)CSc1nnc(C2CC2)n1C1CC1 (configuration not stated) read Toxoplasma: 9.881%; LiHisRS: -8.571%.
OC(COCc1cccs1)CN1CCC(c2ccn[nH]2)CC1 (configuration not stated) read LiHisRS: 10.11%.
c1ccc(N2CC3(CCN(Cc4cccnc4)C3)C2)nc1 read LiHisRS: 15.38%.
CCOc1cc(C)nc(N2CCN(Cc3nccn3CC)CC2)n1 read Toxoplasma: -3.737%; LiHisRS: 27.27%.
CCCOC(=O)c1ccc(-c2ccc(/C=C3\C(=O)NC(=N)N3C)o2)cc1 read Toxoplasma: -19.81%; LiHisRS: 23.68%.
CC(C)CN1CCC2(CCN(Cc3nccs3)CC2)C1=O read LiHisRS: 11.11%.
O=C(NCc1cccnc1)[C@@H]1C[C@@H]2CCN(c3ncc(F)cn3)C[C@@H]2O1 read LiHisRS: 5%.
O=C(NCc1ccc(OCC2CC2)nc1)C1COc2ccccc2O1 (configuration not stated) read Toxoplasma: 5.278%; LiHisRS: 7.254%.
N#Cc1ccc(CNC(=O)NC2CCN(CC(F)(F)F)C2)cc1 (configuration not stated) read Toxoplasma: 14.55%; LiHisRS: 18.03%.
CCn1nc(C)c(CCNC(=O)c2cccc(NCC(=O)O)c2)c1C read Toxoplasma: -8.996%; LiHisRS: 2.632%.
Cc1cnc(N2CCN(C)c3ncccc3C2)nc1 read LiHisRS: 25.86%.
O=C(O)C(F)(F)F.[H][C@@]12COC[C@]1(CNC(=O)c1ccccc1)CN(Cc1nccs1)C2 read Toxoplasma: -0.3586%.
CCn1cnnc1CNC(=O)NC(C)c1ccc(Cl)s1 (configuration not stated) read Toxoplasma: -1.636%; LiHisRS: 7.143%.
CN(C(=O)C1CCOCC1)[C@@H]1CCC[C@@H](N2CCOCC2)[C@@H]1O read Toxoplasma: 5.774%; LiHisRS: 1.449%.
CC(C)CC(c1nc(-c2cnn(C)c2)no1)N1CCCCC1=O (configuration not stated) read Toxoplasma: -2.438%; LiHisRS: 25.64%.
c1cc(CNc2nnc(Cc3ccsc3)o2)cs1 read Toxoplasma: 2.169%; LiHisRS: 15.83%.
O=C(O)C(F)(F)F.O=C(c1cocn1)N1CCC2(CC1)CC(Oc1ccccn1)CO2 (configuration not stated) read Toxoplasma: -9.623%.
O=C1Nc2ccccc2C1C1CCN(C(=O)C2CC2)CC1 (configuration not stated) read Toxoplasma: -9.477%; LiHisRS: 11.65%.
CS(=O)(=O)N1CCC(Oc2ccc(C(=O)NCCC(N)=O)cc2Cl)CC1 read Toxoplasma: 5.398%; LiHisRS: 27.27%.
COCCN1CCN(c2ccc3ccc(C(=O)NC4CC4)cn23)CC1 read Toxoplasma: 3.07%; LiHisRS: 30.77%.
COc1ccccc1C(C)Nc1ncc(C(N)=O)cc1Cl (configuration not stated) read Toxoplasma: -5.513%; LiHisRS: 9.859%.
[H][C@]12CC[C@]([H])(CN(C3Cc4ccccc4C3)C1)N(C(=O)N1CCOCC1)C2 read Toxoplasma: -12.93%.
CS(=O)(=O)NC1CCN(Cc2coc(-c3ccc(Cl)cc3)n2)CC1 read Toxoplasma: -41.18%; LiHisRS: 17.78%.
[H][C@]12CC[C@@]3(N=C(c4ccccc4)NC3=O)[C@@]1([H])CN(CC1CCOCC1)C2 read Toxoplasma: -2.564%.
CC(Cn1cccn1)NCc1cnc(N2CCCC2)nc1 (configuration not stated) read Toxoplasma: -30.58%; LiHisRS: 10.84%.
[H][C@@]12C[C@@H](c3noc(C)n3)O[C@]1([H])CN(Cc1ccc3c(c1)OCO3)C2 read Toxoplasma: -20.02%.
O=C(c1ccc(Cl)o1)N1CCCC(c2cc(C(F)(F)F)[nH]n2)C1 (configuration not stated) read Toxoplasma: -5.21%; LiHisRS: 10.61%.
Cn1cc(N2CC3(CCN(S(C)(=O)=O)C3)CC2=O)cn1 (configuration not stated) read Toxoplasma: 5.296%; LiHisRS: -2.778%.
CC(NCc1cc(O)c2cccc(F)c2n1)c1ccccc1O (configuration not stated) read Toxoplasma: 4.835%; LiHisRS: 1.042%.
CS(=O)(=O)N1CC[C@@H]2[C@@H]1CCN2Cc1ccc2c(c1)OCO2 read LiHisRS: 15.53%.
CC(C)O[C@H]1CN(C(=O)CCN2CCCCO2)C[C@@H]1O read Toxoplasma: -4.285%; LiHisRS: 3.101%.
[H][C@]12CC[C@]([H])(CN(CC(=O)N(C)C)C1)N(Cc1ccccc1C#N)C2 read Toxoplasma: -15.88%.
COCCN1CCC2(CC1)CN(C(=O)Cc1cccnc1)CCO2.O=C(O)C(F)(F)F.O=C(O)C(F)(F)F read Toxoplasma: -6.398%.
CC(C)(C)c1c[nH]c([C@@H]2COCCN2C2CCOCC2)n1 read Toxoplasma: -8.589%; LiHisRS: 12.16%.
CCC(O)CN(c1ccccc1)S(=O)(=O)c1cnc(C)s1 (configuration not stated) read Toxoplasma: 3.463%; LiHisRS: -8.791%.
CCOCc1cc(CNC2CCCc3c2cnn3CC)ccc1OC (configuration not stated) read Toxoplasma: 5.263%; LiHisRS: 8.475%.
Cc1ccn(C)c(=O)c1NC(=O)N(C)Cc1cccc(OC(C)C)c1 read Toxoplasma: -2.17%; LiHisRS: 77.52%.
CO[C@H]1CN(C(C)C)C[C@@H]1NC(=O)Nc1ccc2oc(C)cc2c1 read Toxoplasma: 31.28%; LiHisRS: -1.639%.
CCCn1nnnc1COc1ccc(C(=O)OC)cc1OC read Toxoplasma: 5.538%; LiHisRS: 21.95%.
CN(Cc1cc(F)ccc1F)CC(C)(CO)CO read Toxoplasma: -1.653%; LiHisRS: -1.333%.
CC1=N[C@@]2(CC[C@@H]3CN(C(=O)NC(C)C)C[C@@H]32)C(=O)N1CC(C)C read LiHisRS: 2.778%.
CCc1ccc(NC(=O)CCN2CC(n3nc(C)cc3C)C2)cc1 read Toxoplasma: 16.47%; LiHisRS: 29.41%.
CNc1nc(C2CCCN2C(C)=O)nc2c1CN(CCO)CC2.O=CO (configuration not stated) read Toxoplasma: -19.68%.
COCCC(=O)N1CCC2(CCCN2Cc2cccc(Cl)c2)C1 (configuration not stated) read Toxoplasma: 9.798%; LiHisRS: 7.407%.
Cc1nc(C(C)(C)NCc2ncc(C3CC3)o2)sc1C read Toxoplasma: 1.016%; LiHisRS: 3.333%.

The first 5 entries again:

compound,Toxoplasma,LiHisRS
O=C1CN(Cc2ccc(-c3ccccc3C(=O)O)cc2)CCN1,2.793,5.714
COC(=O)c1ccc2c(-c3ccnc(N[C@@H](C)CO)n3)c[nH]c2c1,29.45,5.714
OC(COCc1ccccc1)CSc1nnc(C2CC2)n1C1CC1 (configuration not stated),9.881,-8.571
OC(COCc1cccs1)CN1CCC(c2ccn[nH]2)CC1 (configuration not stated),-,10.11
c1ccc(N2CC3(CCN(Cc4cccnc4)C3)C2)nc1,-,15.38

Data taken from ChEMBL document CHEMBL3988442, “University of Dundee, Small-Polar-MMV Screening Library” (2021).